Assay results published in PubChem BioAssay AID2685 (National Center for Advancing Translational Sciences (NCATS), 2010).
The list shows a part of the results. These are further read-outs of the screen, such as a control signal, another cell line or another target. No call is given for them. Most of these compounds were active or inconclusive in the main read-out, so they are no random draw. The note in brackets gives the kind of curve behind each potency; many fits are weak.

Experiment: qHTS Assay for Lipid Storage Modulators in Drosophila S3 Cells;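 as to cell number change: cells counted by Cell Tracker Red CMTPX staining in the red channel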
Conditions: BODIPY lipid droplet fluorescence, 18-24 h; for cell number change: measured here: cell count max response, cells fed with added oleic acid
Method in brief: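 Drosophila S3 cells loaded with oleic acid (400 uM, as added) and compounds at several concentrations; lipid droplets imaged by 488-nm laser-scanning cytometry, 500–530 nm intensity and object ratio to cell channel. Percent activity normalized to 20 uM Triacsin C.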

[1] = measured here: cell number channel AC50, cells fed with added oleic acid
[2] = measured here: lipid fluorescence (Fed channel) AC50, cells fed with added oleic acid

Compound | AC50 [1] | cell number change [%] | AC50 [2]
Cn1nnc2c(sc3nc(N4CCOCC4)c4c(c32)CCCC4)c1=O | 2.31 µM [rising, partial curve] | – | –
CCOC(=O)C1=C(C)NC(C)=C(C(=O)OCC)C1c1ccc(Br)o1 | – | 0.489 | 20.6 µM [falling, single point]
O=C(N/N=C/c1ccc(N2CCOCC2)cc1)C1CC1 | – | 23.2 | –
CN(Cc1ccccc1)C(=O)c1nc[nH]c1C(=O)N1CCN(c2ccccc2)CC1 | – | 15.5 | 0.116 µM [falling, single point]
Cc1ccc(C)c(S(=O)(=O)N(C)Cc2cccs2)c1 | – | -8.64 | 0.0731 µM [falling, full curve, poor fit]
O=C(CCS(=O)(=O)c1ccccc1)Nc1nnc(-c2ccco2)o1 | – | -0.587 | –
COC(=O)C[N+](C)(C)CC#Cc1ccccc1 | – | -10.1 | 20.6 µM [falling, partial curve]
CCc1nnc(NC(=O)CN2CCC(O)(c3ccccc3OC)CC2)s1 | – | 12.2 | –
COc1ccc(-c2nnc(-c3ccccc3)o2)cc1OC | – | -16.8 | 29.1 µM [falling, single point]
Cc1cccc(Cl)c1NNC(=O)Nc1c([N+](=O)[O-])c(C)nn1C | 0.259 µM [rising, full curve] | – | 0.146 µM [rising, full curve, poor fit]
CCc1ccc(CN2CCN(S(=O)(=O)Cc3ccccc3)CC2)cc1 | – | 13.3 | 16.4 µM [rising, partial curve]
O=C(CCN=C1NS(=O)(=O)c2ccccc21)OCc1c(F)c(F)c(F)c(F)c1F | – | -50 | –
CCOC(=O)c1c(N)sc(C(O)(C(F)(F)F)C(F)(F)F)c1-c1ccc(F)cc1 | 29.1 µM [falling, single point] | -62.6 | 29.1 µM [falling, single point]
CC(C)(C)C1CCC(OCC(O)CN2CCN(c3ccccc3)CC2)CC1 (stereo not given) | – | -5.44 | 3.66 µM [rising, single point]
CCOC(=O)C1CCN(C(C(=O)NC2CCCCC2)c2ccc(OC)cc2)CC1 (stereo not given) | – | 16.2 | –
CC(=O)N1CCN(c2ccc(NCc3ccc(C)cc3)cc2)CC1 | – | 13.5 | 29.1 µM [rising, single point]
COc1cc(-c2cc(C(=O)Nc3ccc(N4CCOCC4)cc3)c3ccccc3n2)cc(OC)c1OC | 0.116 µM [rising, full curve, poor fit] | 24 | –
Nc1c2c(nc3sc4c(c13)CCCCC4)CCCCC2 | – | – | 29.1 µM [falling, single point]
O=C(NNC(=O)c1ccncc1)c1ccncc1 | 20.6 µM [falling, single point] | -38.3 | 20.6 µM [falling, single point]
CCC1CCCCN1C(=S)NC(=O)c1cc(Br)ccc1Cl (stereo not given) | – | – | 0.164 µM [rising, full curve, poor fit]

Compound | AC50 [1] | cell number change [%] | AC50 [2]
CCCCNC(=S)NCCN1CCN(C(=S)NCCCC)CC1 | 0.00461 µM [falling, full curve, poor fit] | -16.4 | –
CC1CCc2cc(F)ccc2N1C(=O)C1(C)CC1(Cl)Cl (stereo not given) | – | -14.3 | 0.13 µM [falling, full curve, poor fit]
CCN(CC)c1ncnc2c1[nH]c1ccccc12 | – | 5.58 | 3.66 µM [rising, partial curve]
CN(C)S(=O)(=O)c1ccc(N=Cc2c(C(F)(F)F)[nH]n(C)c2=O)cc1 | 0.326 µM [falling, full curve, poor fit] | – | –
Cc1ccc(CC(=O)NCCCn2ccnc2)cc1 | 16.4 µM [rising, single point] | 37.1 | –
COc1ccc2c(C)cc(SCC(=O)NCC3CCCO3)nc2c1 (stereo not given) | – | 31.1 | 29.1 µM [rising, single point]
CC(OC(=O)c1cc(=O)c2cc(Cl)ccc2o1)C(=O)N1CCCC1 (stereo not given) | – | -26.5 | –
Cc1ccc(-n2cc(CN(C)Cc3nccn3C)c(-c3cccc(C)c3)n2)cc1 | – | -17.1 | 0.00461 µM [falling, full curve, poor fit]
Nc1cc(Cl)ccc1Oc1ccc(Cl)cc1 | 29.1 µM [falling, single point] | -48.2 | 23.1 µM [falling, single point]
O=C(Cn1ccsc1=NC(=O)c1ccco1)c1ccccc1 | – | 18.9 | 0.58 µM [rising, full curve]
O=C(COC(=O)c1ccc([N+](=O)[O-])s1)NC(c1ccccc1)c1ccccc1 | – | 0.235 | 1.64 µM [falling, partial curve, poor fit]
COc1c(C(=O)Nc2ccc(CN3CCOCC3)cc2)cc2ccccc2c1Br | – | -13.5 | 2.91 µM [rising, single point]
O=C(CSc1ccc(-c2cccs2)nn1)N1CCCCCC1 | – | -18.8 | –
CCCSc1cc(N2CCOCC2)nc(-c2ccccc2Cl)n1 | 29.1 µM [rising, single point] | 99.7 | 29.1 µM [rising, single point]
CN(C)Cc1ccc(F)cc1Sc1ccc(Cl)cc1Cl | 29.1 µM [falling, single point] | -51.1 | 11.6 µM [falling, partial curve, poor fit]
O=C(NCc1nc2ccccc2[nH]1)c1ccccc1F | – | -19.5 | –
COC(=O)c1sccc1NC(=O)c1ccc(Cl)cc1 | 0.411 µM [falling, full curve, poor fit] | -30.5 | 10.3 µM [falling, partial curve]
CCOC(=O)N1CCN(c2c(NCc3ccccc3OC)c(=O)c2=O)CC1 | – | -11.6 | 0.103 µM [rising, full curve, poor fit]
COc1ccc(CC(=O)NC(C)(C)CC(C)=O)cc1OC | – | 165 | –
CC(=O)O[C@H]1CC(=O)OC(C)(C)C2CC(=O)[C@]3(C)C(CC[C@@](C)([C@@H](O[C@@H]4O[C@H](CO)[C@@H](O)[C@H](O)[C@H]4O)c4ccoc4)[C@@]34O[C@@H]4C(=O)O)[C@]21C (stereo not given in full) | – | 18.9 | 10.3 µM [falling, single point]

Record cards, as listed above:
CCOC(=O)c1c(N)sc(C(O)(C(F)(F)F)C(F)(F)F)c1-c1ccc(F)cc1 reads AC50 [1]: 29.1 µM [falling, single point]; cell number change [%]: -62.6; AC50 [2]: 29.1 µM [falling, single point]
O=C(NNC(=O)c1ccncc1)c1ccncc1 reads AC50 [1]: 20.6 µM [falling, single point]; cell number change [%]: -38.3; AC50 [2]: 20.6 µM [falling, single point]
COc1c(C(=O)Nc2ccc(CN3CCOCC3)cc2)cc2ccccc2c1Br reads cell number change [%]: -13.5; AC50 [2]: 2.91 µM [rising, single point]
Nc1cc(Cl)ccc1Oc1ccc(Cl)cc1 reads AC50 [1]: 29.1 µM [falling, single point]; cell number change [%]: -48.2; AC50 [2]: 23.1 µM [falling, single point]

(continued)

Compound | AC50 [1] | cell number change [%] | AC50 [2]
CCCCNC(=O)Nc1ccccc1C(=O)NCc1ccco1 | – | 7.38 | 2.91 µM [rising, single point]
COc1cc(CNc2ncn[nH]2)cc(Br)c1OC | 0.0326 µM [falling, full curve, poor fit] | -19.9 | –
COc1ccc(N(C(=O)/C=C/C(=O)Nc2cc(C)on2)C(C(=O)NC2CCCC2)c2ccccc2C)cc1 (stereo not given) | 0.291 µM [falling, full curve, poor fit] | -18.9 | 20.6 µM [falling, single point]
CCOc1ccccc1NC(=O)[C@@H](NC(=O)c1ccccc1F)C(C)C | – | 2.25 | 2.91 µM [rising, single point]
CCCCCn1c(=O)[nH]c2cc(C(=O)NCCCN(CC)CC)ccc2c1=O | 0.116 µM [falling, full curve, poor fit] | -17.6 | –
CC(C)OP(=O)(OC(C)C)C1(NS(=O)(=O)c2ccc(Cl)cc2)C=C(Cl)C(=O)C(Cl)=C1 | – | 8.02 | –
C=CCNC(=O)c1cccn1-c1ccsc1C(=O)OC | – | – | 0.651 µM [falling, full curve, poor fit]
CCCn1c(C2CCCN2c2nc(-c3ccc(OC)cc3)cs2)nc2ccccc21 (stereo not given) | – | 8.74 | 0.00517 µM [rising, full curve, poor fit]
O=C(NCCc1ccccc1)C1CCC(CNS(=O)(=O)c2cccc3cccnc23)CC1 (stereo not given) | – | 10.2 | 6.51 µM [rising, single point]
COc1ccc([C@@H]2CC=C(C(=O)O)[C@H](c3ccccc3F)N2S(=O)(=O)c2ccccc2C)cc1 | 2.31 µM [falling, single point] | 10.4 | 6.51 µM [rising, single point]
CC(C)(C)C1CCC(=NNc2ncc(C(F)(F)F)cc2Cl)CC1 (stereo not given) | 2.06 µM [rising, single point] | – | 1.84 µM [rising, partial curve]
C/C(=N/NC(=O)c1ccc(Cl)s1)c1cccnc1 | 3.26 µM [falling, single point] | -3.78 | 29.1 µM [falling, single point]
CCCc1[nH]nc2c1C(c1ccc(Br)s1)C(C#N)=C(N)O2 (stereo not given) | 0.651 µM [rising, full curve] | – | 25.9 µM [falling, single point]
CCc1ccc(NC(=O)N2CCN(c3ccccc3)CC2)cc1 | – | 16.4 | 0.1 µM [rising, full curve, poor fit]
CC(C)(C)c1nc(CN2CCCCC2)cc(CN2CCCCC2)c1O | – | – | 8.2 µM [falling, partial curve]
CCNc1nc(N)nc(-c2cc(Cl)ccc2O)n1 | 16.4 µM [falling, partial curve, poor fit] | -44.3 | 1.64 µM [rising, partial curve]
COc1ccc(C(=O)CN2CCN(c3ccc(F)cc3)CC2)cc1 | 7.31 µM [falling, partial curve, poor fit] | -16.1 | 1.3 µM [rising, partial curve]
O=C(O)c1cccc(-n2cc(-c3cccc(C(F)(F)F)c3)cn2)c1 | 0.291 µM [rising, full curve, poor fit] | 26.1 | 29.1 µM [rising, single point]
CCOc1cc2[nH]c(=S)n(CCC(=O)NCc3ccco3)c(=O)c2cc1OCC | 16.4 µM [rising, single point] | 38.5 | 23.1 µM [rising, single point]
